# Measurements reported in PubChem BioAssay AID504784 (Drosophila RNAi Screening Center, 2011).
# Screen: 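Genome-wide knock-down for genes giving too much or too little stored lipid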 (primary screen)
# System: Drosophila Kc167 embryonic cells
# Knock-down reagent: long dsRNA against Drosophila genes, about 250 ng dsRNA per well
# Timing: 4 days
# Challenge: cells fed 400 µM oleic acid bound to BSA
# Detection: 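Microscope images give a droplet-to-nucleus area ratio, taken as log and converted to a screen-wide B-score; higher values mean greater lipid storage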
# Direction: droplet/nuclear area B-score: higher = more stored lipid (overstorage)
# In all, the deposit lists about 17,000 reagents; this is an unselected part of those with a known target gene and a result. 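Each column is one replicate's B-score; the combined score over replicates was not deposited, so single values may mislead.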 A plus sign joins genes that one reagent is predicted to hit. Not all columns of the deposit are shown.
gene knocked down,DRSC id,"droplet/nuclear area B-score, replicate 1"
CG34375,DRSC14684,0.529
CG34375,DRSC14685,-1.53
CG10738,DRSC09792,0.0432
Rab3-GEF (Rab3 GDP-GTP exchange factor),DRSC19954,0.573
Rab3-GEF (Rab3 GDP-GTP exchange factor),DRSC19955,1.7
Rab3-GEF (Rab3 GDP-GTP exchange factor),DRSC19956,-0.734
Spag1 (Spag1 axonemal dynein assembly factor),DRSC15331,-0.393
ProtA (Protamine A),DRSC03372,-0.318
CG13613,DRSC14616,-1.65
CG33791 + CG18170,DRSC08523,0.421
CG33791 + CG18170,DRSC08601,-1.01
CG14929 + CG4970 + CG14930,DRSC02412,0.926
Sry-beta (Serendipity beta),DRSC16868,0.959
Ahcy (Adenosylhomocysteinase),DRSC19329,2.43
"E(spl)m5-HLH (Enhancer of split m5, helix-loop-helix)",DRSC16695,-1
Gr36c (Gustatory receptor 36c),DRSC02437,0.302
GATAd,DRSC02803,0.41
CG14323,DRSC14802,2.3
CG3999,DRSC15534,0.492
CG14613,DRSC20625,0.718
Ir31a (Ionotropic receptor 31a),DRSC22358,0.384
CG4009,DRSC15536,-0.871
Sld5,DRSC14892,1.34
CG9459,DRSC16496,-1.82
eIF2Bbeta (eukaryotic translation initiation factor 2B subunit beta),DRSC18465,1.24
CG33267,DRSC09120,0.313
CG3702,DRSC00628,0.136
mEFTu1 (mitochondrial translation elongation factor Tu 1),DRSC06959,0.584
CG3918,DRSC18331,-2.26
CG3918,DRSC23159,0.244
bcd (bicoid),DRSC12624,0.0903
CG8475,DRSC03091,-0.808
CG8321,DRSC07148,-0.689
CG10516,DRSC09738,0.196
"ATPsynO (ATP synthase, oligomycin sensitivity conferring protein)",DRSC16780,0.000816
Ugt37C2 (UDP-glycosyltransferase family 37 member C2),DRSC02247,0.262
bnb (bangles and beads),DRSC20314,-0.535
CG15155,DRSC02456,0.203
CG30109,DRSC05675,1.64
TTLL1A (Tubulin tyrosine ligase-like 1A),DRSC20121,0.148
Oseg1 (Outer segment 1),DRSC10776,-0.0196
CG17571,DRSC01768,1.04
CG17571,DRSC03755,-0.487
CG14926,DRSC02409,-2.67
CG14507,DRSC14859,-1.75
His4:CG33883 + His4:CG33889 + His4:CG33899 + 20 more,DRSC21268,1.72
Ir54a + sub,DRSC06459,1.58
CG8034,DRSC20076,0.00988
CG13506,DRSC04150,-0.266

In a second layout: entries from further up.
| gene knocked down | DRSC id | droplet/nuclear area B-score, replicate 1 |
| --- | --- | --- |
| CG3702 | DRSC00628 | 0.136 |
| mEFTu1 (mitochondrial translation elongation factor Tu 1) | DRSC06959 | 0.584 |
| CG3918 | DRSC18331 | -2.26 |
| CG3918 | DRSC23159 | 0.244 |
| bcd (bicoid) | DRSC12624 | 0.0903 |

Continued.
gene knocked down,DRSC id,"droplet/nuclear area B-score, replicate 1"
CG33251 (retired record) + CG9915,DRSC20217,-0.827
Pde9 (Phosphodiesterase 9),DRSC19746,-1.41
Pde9 (Phosphodiesterase 9),DRSC19874,-0.112
Pde9 (Phosphodiesterase 9),DRSC19875,1.87
Pde9 (Phosphodiesterase 9),DRSC19876,-1.88
CG8924,DRSC20122,0.561
CG8924,DRSC23027,-1.45
CG4229,DRSC10407,-0.0599
alphaKap4 (alpha Karyopherin-4),DRSC09823,-1.78
Osi24 (Osiris 24),DRSC12275,-0.522
Bcat (Branched chain amino acid transaminase),DRSC19756,0.791
lncRNA:roX1 (long non-coding RNA on the X 1),DRSC21884,0.826
CG9588,DRSC16504,-0.00134
CG8301,DRSC16405,-1.1
Cubn (Cubilin),DRSC18256,0.478
ND-24 (NADH dehydrogenase (ubiquinone) 24 kDa subunit),DRSC19960,2.48
zfh2 (Zn finger homeodomain 2),DRSC17178,-4.41
ine (inebriated),DRSC00822,-0.806
asRNA:CR42547 + CG15674,DRSC04264,-0.168
MYPT-75D (Myosin phosphatase targeting subunit 75D),DRSC10743,0.00221
t-Grip128 (testis-specific gamma-tubulin ring protein 128),DRSC07853,2.19
Or94a (Odorant receptor 94a),DRSC16772,0.071
CG1309,DRSC08302,0.0544
CG11474,DRSC04112,0.0141
Pgd (Phosphogluconate dehydrogenase),DRSC18697,-1.79
eag (ether a go-go),DRSC19067,0.378
eag (ether a go-go),DRSC20328,-0.889
CG10747,DRSC02104,-2.53
CG17764,DRSC18135,-1.26
CG17764,DRSC23055,0.422
beta4GalT7 (beta-4-galactosyltransferase 7),DRSC14385,-0.166
CG6763,DRSC16110,-0.66
CG5070,DRSC19932,0.0614
Nepl12 (Neprilysin-like 12),DRSC16411,0.00293
